Series [1] concerns primary HCC tissue samples. Kind of series: Identification and label-free LC-MS relative quantitation of HLA-presented peptides (presentation profiles/scores), HCC versus normal tissues. To be noted: HCC tumors compared to a panel of normal tissues. More on the design: species or system human; key to PeptidePresentation (presentation score): very highly over-presented on tumors compared to a panel of normal tissues (+++); highly over-presented on tumors compared to a panel of normal tissues (++); over-presented on tumors compared to a panel of normal tissues (+).

Series [2] concerns tumor samples of other tumor types. Kind of series: Over-presentation of peptides on additional tumor types versus normal tissues (LC-MS). More on the design: species or system human. As to conditions: over-presentation on more than 5% of the measured tumor samples, or presentation on more than 5% with ratio of geometric means tumor vs normal tissues larger than 3.

Consider “194: peptide found in PLK4 (gene looked up) (QYASRFVQL; listed as Homo sapiens) [compound 194]”, for which the “PeptidePresentation (presentation score)” value in series [1] is given as “+++”. In series [2], the “Additional Entities (additional tumor types on which the peptide was found over-presented)” value is recorded as “NSCLC, GC” and the “Other relevant organs/diseases (additional tumor types on which the peptide was found over-presented)” value was “Brain”.

In the case of “293 (FLASESLIKQI; listed as Homo sapiens) [compound 293]”, the “PeptidePresentation (presentation score)” value in series [1] was “++”. In series [2], the “Additional Entities (additional tumor types on which the peptide was found over-presented)” value is on record as “NSCLC, PrC, MCC, Melanoma, OC, Esophageal Cancer, Urinary bladder cancer, Uterine Cancer, Gallbladder Cancer, Bile Duct Cancer, NHL, PC” and the “Other relevant organs/diseases (additional tumor types on which the peptide was found over-presented)” value is “Brain, Colon, Rectum”.

Take “14 (ALADLTGTVV; listed as Homo sapiens) [compound 14]”: in series [1], the “PeptidePresentation (presentation score)” value is on record as “+++”. Also, in series [2], the “Additional Entities (additional tumor types on which the peptide was found over-presented)” value is on record as “NSCLC, SCLC, BRCA, OC, Esophageal Cancer, Urinary bladder cancer, Uterine Cancer, PC” and the “Other relevant organs/diseases (additional tumor types on which the peptide was found over-presented)” value is “Kidney, Brain, Pancreas”.

As for “9 (ALANQKLYSV; listed as Homo sapiens) [compound 9]”, the “PeptidePresentation (presentation score)” value in series [1] is recorded as “+”. In series [2], the “Additional Entities (additional tumor types on which the peptide was found over-presented)” value is listed as “NSCLC, CRC, MCC, OC, Urinary bladder cancer, Gallbladder Cancer, Bile Duct Cancer, PC”.

“310 (SLWGGDVVL; listed as Homo sapiens) [compound 310]”: the “PeptidePresentation (presentation score)” value in series [1] was “+”. Also, the “Other relevant organs/diseases (additional tumor types on which the peptide was found over-presented)” value in series [2] was “Brain, Colon, Rectum”.

For the substance “282 (GQFPSYLETV; listed as Homo sapiens) [compound 282]”, in series [1], the “PeptidePresentation (presentation score)” value is reported as “++”. In series [2], the “Additional Entities (additional tumor types on which the peptide was found over-presented)” value is “NSCLC, CLL, Melanoma, OC, Esophageal Cancer, Urinary bladder cancer, NHL” and the “Other relevant organs/diseases (additional tumor types on which the peptide was found over-presented)” value is reported as “Kidney, Brain, Colon, Rectum”.

Consider “91 (RLPDIPLRQV; listed as Homo sapiens) [compound 91]”, for which the “PeptidePresentation (presentation score)” value in series [1] is given as “+”. The “Additional Entities (additional tumor types on which the peptide was found over-presented)” value in series [2] is listed as “NSCLC, CLL, Urinary bladder cancer, NHL”.

As for “94 (RMSDVVKGV; listed as Homo sapiens) [compound 94]”, the “PeptidePresentation (presentation score)” value in series [1] is on record as “+++”. Further, the “Additional Entities (additional tumor types on which the peptide was found over-presented)” value in series [2] was “BRCA, OC”.

For “239 (FLLGFIPAKA; listed as Homo sapiens) [compound 239]”, the “PeptidePresentation (presentation score)” value in series [1] is recorded as “+”. Moreover, in series [2], the “Additional Entities (additional tumor types on which the peptide was found over-presented)” value is “Urinary bladder cancer, AML, NHL” and the “Other relevant organs/diseases (additional tumor types on which the peptide was found over-presented)” value is given as “Brain”.

“154 (KLTDHLKYV; listed as Homo sapiens) [compound 154]”: the “PeptidePresentation (presentation score)” value in series [1] is “+”. In series [2], the “Additional Entities (additional tumor types on which the peptide was found over-presented)” value is recorded as “SCLC”.

On to “347 (ALNPADITV; listed as Homo sapiens) [compound 347]”, for which, in series [1], the “PeptidePresentation (presentation score)” value was “+”. The “Other relevant organs/diseases (additional tumor types on which the peptide was found over-presented)” value in series [2] is recorded as “Brain”.

“30 (YLGEGPRMV; listed as Homo sapiens) [compound 30]”: in series [1], the “PeptidePresentation (presentation score)” value was “++”. In addition, in series [2], the “Additional Entities (additional tumor types on which the peptide was found over-presented)” value is given as “NSCLC, Melanoma, Urinary bladder cancer, Uterine Cancer, Gallbladder Cancer, Bile Duct Cancer” and the “Other relevant organs/diseases (additional tumor types on which the peptide was found over-presented)” value was “Colon, Rectum, CLL”.

As to “59 (ILADTFIGV; listed as Homo sapiens) [compound 59]”, the “PeptidePresentation (presentation score)” value in series [1] was “++”. In series [2], the “Additional Entities (additional tumor types on which the peptide was found over-presented)” value is on record as “NSCLC, SCLC, GC, OC, Urinary bladder cancer, Gallbladder Cancer, Bile Duct Cancer, NHL” and the “Other relevant organs/diseases (additional tumor types on which the peptide was found over-presented)” value is “Colon, Rectum, Pancreas”.

As to “15 (LLYGHTVTV; listed as Homo sapiens) [compound 15]”, the “PeptidePresentation (presentation score)” value in series [1] is “+”. Also, in series [2], the “Additional Entities (additional tumor types on which the peptide was found over-presented)” value was “NSCLC, SCLC, BRCA, Melanoma, OC, Esophageal Cancer, Urinary bladder cancer, NHL, PC” and the “Other relevant organs/diseases (additional tumor types on which the peptide was found over-presented)” value is listed as “Kidney, Brain, Colon, Rectum, Pancreas”.

Regarding “203 (YYGILQEKI; listed as Homo sapiens) [compound 203]”, the “PeptidePresentation (presentation score)” value in series [1] is reported as “+++”. Also, in series [2], the “Additional Entities (additional tumor types on which the peptide was found over-presented)” value is on record as “NSCLC” and the “Other relevant organs/diseases (additional tumor types on which the peptide was found over-presented)” value is on record as “Kidney, Brain”.

With “32 (ALNAVRLLV; listed as Homo sapiens) [compound 32]”, the “PeptidePresentation (presentation score)” value in series [1] is given as “+++”. The “Additional Entities (additional tumor types on which the peptide was found over-presented)” value in series [2] is listed as “SCLC”.

With “236 (ALADKELLPSV; listed as Homo sapiens) [compound 236]”, the “PeptidePresentation (presentation score)” value in series [1] is “++”. In series [2], the “Additional Entities (additional tumor types on which the peptide was found over-presented)” value was “NSCLC, SCLC, GC, Melanoma, OC, Esophageal Cancer, Urinary bladder cancer, Gallbladder Cancer, Bile Duct Cancer, NHL” and the “Other relevant organs/diseases (additional tumor types on which the peptide was found over-presented)” value is “Kidney, Colon, Rectum, Pancreas”.

On to “133 (ALLEMDARL; listed as Homo sapiens) [compound 133]”, for which the “PeptidePresentation (presentation score)” value in series [1] is “+”. In series [2], the “Additional Entities (additional tumor types on which the peptide was found over-presented)” value was “NSCLC, SCLC, BRCA, MCC, Melanoma, OC, Esophageal Cancer, Urinary bladder cancer, Uterine Cancer, Gallbladder Cancer, Bile Duct Cancer, AML, NHL” and the “Other relevant organs/diseases (additional tumor types on which the peptide was found over-presented)” value is given as “Kidney, Brain, Colon, Rectum”.

Take “269 (YLMEGSYNKV; listed as Homo sapiens) [compound 269]”: the “PeptidePresentation (presentation score)” value in series [1] is recorded as “+”. Besides, in series [2], the “Additional Entities (additional tumor types on which the peptide was found over-presented)” value was “NSCLC, SCLC, PrC, BRCA, MCC, Melanoma, OC, Esophageal Cancer, Urinary bladder cancer, Gallbladder Cancer, Bile Duct Cancer” and the “Other relevant organs/diseases (additional tumor types on which the peptide was found over-presented)” value is “Brain, Colon, Rectum”.

Take “190 (RYNEKCFKL; listed as Homo sapiens) [compound 190]”: the “PeptidePresentation (presentation score)” value in series [1] is given as “+++”. The “Additional Entities (additional tumor types on which the peptide was found over-presented)” value in series [2] was “NSCLC”.

Consider “308 (ALLRTVVSV; listed as Homo sapiens) [compound 308]”, for which the “PeptidePresentation (presentation score)” value in series [1] is given as “+”. Further, the “Other relevant organs/diseases (additional tumor types on which the peptide was found over-presented)” value in series [2] is “Kidney, Pancreas”.

Regarding “329 (SLIEDLILL; listed as Homo sapiens) [compound 329]”, the “PeptidePresentation (presentation score)” value in series [1] is given as “+++”. In addition, the “Other relevant organs/diseases (additional tumor types on which the peptide was found over-presented)” value in series [2] was “Kidney, Brain, Colon, Rectum, Pancreas”.

For “255 (SLFGQDVKAV; listed as Homo sapiens) [compound 255]”, the “PeptidePresentation (presentation score)” value in series [1] is on record as “+++”. In addition, the “Other relevant organs/diseases (additional tumor types on which the peptide was found over-presented)” value in series [2] is “Kidney, Brain, Colon, Rectum”.

On to “60 (ILSPLSVAL; listed as Homo sapiens) [compound 60]”, for which the “PeptidePresentation (presentation score)” value in series [1] was “+”. The “Other relevant organs/diseases (additional tumor types on which the peptide was found over-presented)” value in series [2] is on record as “Kidney, Pancreas”.

As for “326 (ALSDGVHKI; listed as Homo sapiens) [compound 326]”, the “PeptidePresentation (presentation score)” value in series [1] is recorded as “++”. For the same substance, in series [2], the “Other relevant organs/diseases (additional tumor types on which the peptide was found over-presented)” value is on record as “Pancreas”.

In the case of “256 (SLFQGVEFHYV; listed as Homo sapiens) [compound 256]”, in series [1], the “PeptidePresentation (presentation score)” value is given as “+”. Besides, in series [2], the “Additional Entities (additional tumor types on which the peptide was found over-presented)” value was “CRC, CLL, MCC, NHL”.

For “297 (TLFYSLREV; listed as Homo sapiens) [compound 297]”, in series [1], the “PeptidePresentation (presentation score)” value was “+”. For the same substance, in series [2], the “Additional Entities (additional tumor types on which the peptide was found over-presented)” value is on record as “BRCA, Uterine Cancer, AML” and the “Other relevant organs/diseases (additional tumor types on which the peptide was found over-presented)” value is listed as “Kidney, Brain, Colon, Rectum”.

For “16 (SLLGGNIRL; listed as Homo sapiens) [compound 16]”, the “PeptidePresentation (presentation score)” value in series [1] is recorded as “++”. Moreover, in series [2], the “Additional Entities (additional tumor types on which the peptide was found over-presented)” value is “GC, PrC, Esophageal Cancer, Urinary bladder cancer, Uterine Cancer, PC” and the “Other relevant organs/diseases (additional tumor types on which the peptide was found over-presented)” value is “Brain, Colon, Rectum”.

“128 (GLAFSLNGV; listed as Homo sapiens) [compound 128]”: the “PeptidePresentation (presentation score)” value in series [1] was “+”. Besides, in series [2], the “Additional Entities (additional tumor types on which the peptide was found over-presented)” value is “Melanoma, Uterine Cancer, Gallbladder Cancer, Bile Duct Cancer”.

For “258 (SLMGPVVHEV; listed as Homo sapiens) [compound 258]”, in series [1], the “PeptidePresentation (presentation score)” value is “+”. In series [2], the “Additional Entities (additional tumor types on which the peptide was found over-presented)” value is “SCLC, MCC, Melanoma, OC, Urinary bladder cancer, NHL” and the “Other relevant organs/diseases (additional tumor types on which the peptide was found over-presented)” value was “Brain”.

For the substance “58 (ILADLNLSV; listed as Homo sapiens) [compound 58]”, the “PeptidePresentation (presentation score)” value in series [1] was “+”. For the same substance, in series [2], the “Additional Entities (additional tumor types on which the peptide was found over-presented)” value is “BRCA” and the “Other relevant organs/diseases (additional tumor types on which the peptide was found over-presented)” value is on record as “Pancreas”.

Take “134 (ALLETNPYLL; listed as Homo sapiens) [compound 134]”: in series [1], the “PeptidePresentation (presentation score)” value is recorded as “++”. Moreover, in series [2], the “Additional Entities (additional tumor types on which the peptide was found over-presented)” value is recorded as “Urinary bladder cancer, Gallbladder Cancer, Bile Duct Cancer” and the “Other relevant organs/diseases (additional tumor types on which the peptide was found over-presented)” value was “Brain”.

Regarding “99 (SLSAFLPSL; listed as Homo sapiens) [compound 99]”, the “PeptidePresentation (presentation score)” value in series [1] is “+++”. The “Additional Entities (additional tumor types on which the peptide was found over-presented)” value in series [2] was “OC, Esophageal Cancer, Gallbladder Cancer, Bile Duct Cancer, NHL”.

(Values after patent publication US10064926B2, “Peptides and combination of peptides for use in immunotherapy against hepatocellular carcinoma (HCC) and other cancers” (Immatics biotechnologies GmbH, priority 2014, dated 2018).)
